# According to paper PMC10218236:
# Amino acid sequences for entries named in this document (tags omitted). Residues count along the entry.
# UniProt P32004, 20-1257: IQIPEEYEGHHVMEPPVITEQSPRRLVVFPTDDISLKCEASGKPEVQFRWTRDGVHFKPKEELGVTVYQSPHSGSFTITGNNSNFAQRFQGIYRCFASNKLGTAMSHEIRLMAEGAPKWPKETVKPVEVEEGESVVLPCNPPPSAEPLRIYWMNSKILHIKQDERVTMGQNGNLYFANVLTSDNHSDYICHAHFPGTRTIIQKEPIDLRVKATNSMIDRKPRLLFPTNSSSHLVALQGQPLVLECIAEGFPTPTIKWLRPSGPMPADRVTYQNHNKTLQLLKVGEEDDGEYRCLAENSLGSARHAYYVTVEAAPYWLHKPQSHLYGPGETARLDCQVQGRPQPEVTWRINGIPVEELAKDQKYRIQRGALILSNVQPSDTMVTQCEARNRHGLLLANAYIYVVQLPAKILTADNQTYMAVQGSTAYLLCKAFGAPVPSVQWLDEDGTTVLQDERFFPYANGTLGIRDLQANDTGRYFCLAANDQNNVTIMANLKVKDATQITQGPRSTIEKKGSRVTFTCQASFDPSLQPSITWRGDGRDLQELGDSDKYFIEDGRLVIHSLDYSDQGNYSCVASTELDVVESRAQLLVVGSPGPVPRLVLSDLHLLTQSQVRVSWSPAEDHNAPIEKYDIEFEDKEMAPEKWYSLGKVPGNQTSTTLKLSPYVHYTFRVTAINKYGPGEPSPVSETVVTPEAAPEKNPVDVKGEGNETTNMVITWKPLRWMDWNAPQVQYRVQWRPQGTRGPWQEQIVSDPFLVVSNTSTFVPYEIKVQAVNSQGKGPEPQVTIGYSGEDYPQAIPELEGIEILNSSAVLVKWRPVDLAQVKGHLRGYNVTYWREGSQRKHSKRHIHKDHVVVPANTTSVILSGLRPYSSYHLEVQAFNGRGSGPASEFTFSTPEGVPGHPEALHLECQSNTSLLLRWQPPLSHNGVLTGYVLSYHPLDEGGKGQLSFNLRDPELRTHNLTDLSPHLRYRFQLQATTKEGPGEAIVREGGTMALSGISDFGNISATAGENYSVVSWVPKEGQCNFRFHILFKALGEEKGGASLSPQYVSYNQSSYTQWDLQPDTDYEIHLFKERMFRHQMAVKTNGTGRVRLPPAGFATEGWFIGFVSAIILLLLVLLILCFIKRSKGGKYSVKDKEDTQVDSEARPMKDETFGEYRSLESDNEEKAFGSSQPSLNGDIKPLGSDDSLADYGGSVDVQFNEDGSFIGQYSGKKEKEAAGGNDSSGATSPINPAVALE
# Construct, isoform or probe ends are uncertain for at least one entry. At least one result comes from cells or an extract, where the contact may be indirect. For some of these results: Negatives hold for the conditions tested. For some of these results: A weaker result is weaker than the reference pair of the same experiment.
# Columns and labels:
# Assay in all cases: flow cytometry
# [1] = target: L1CAM-FL (UniProt P32004); details: transfected PC3; PBS, 4.5 g/L glucose, 5 mM MgCl2, 1 mg/mL BSA, 0.1 mg/mL herring sperm DNA; 30 min at 4 °C (or 25/37 °C); pH not stated; protein on the cell surface; label: FAM (3' FAM in DMS footprinting); single-stranded DNA
# [2] = target: L1CAM-FNIII (UniProt P32004); details: transfected PC3; PBS, 4.5 g/L glucose, 5 mM MgCl2, 1 mg/mL BSA, 0.1 mg/mL herring sperm DNA; 30 min at 4 °C (or 25/37 °C); pH not stated; protein on the cell surface; label: FAM (3' FAM in DMS footprinting); single-stranded DNA
# [3] = target: L1CAM-Ig (UniProt P32004); details: transfected PC3; PBS, 4.5 g/L glucose, 5 mM MgCl2, 1 mg/mL BSA, 0.1 mg/mL herring sperm DNA; 30 min at 4 °C (or 25/37 °C); pH not stated; protein on the cell surface; label: FAM (3' FAM in DMS footprinting); single-stranded DNA
# [4] = target: L1CAM-Ig1-5 (UniProt P32004); details: transfected PC3; PBS, 4.5 g/L glucose, 5 mM MgCl2, 1 mg/mL BSA, 0.1 mg/mL herring sperm DNA; 30 min at 4 °C (or 25/37 °C); pH not stated; protein on the cell surface; label: FAM (3' FAM in DMS footprinting); single-stranded DNA
# [5] = target: L1CAM-Ig6 (UniProt P32004); details: transfected PC3; PBS, 4.5 g/L glucose, 5 mM MgCl2, 1 mg/mL BSA, 0.1 mg/mL herring sperm DNA; 30 min at 4 °C (or 25/37 °C); pH not stated; protein on the cell surface; label: FAM (3' FAM in DMS footprinting); single-stranded DNA
# [6] = target: L1CAM-KGE (UniProt P32004); details: transfected PC3; PBS, 4.5 g/L glucose, 5 mM MgCl2, 1 mg/mL BSA, 0.1 mg/mL herring sperm DNA; 30 min at 4 °C (or 25/37 °C); pH not stated; protein on the cell surface; label: FAM (3' FAM in DMS footprinting); single-stranded DNA
# [7] = target: L1CAM on L1CAM-high cells (LoVo) (Homo sapiens?) (UniProt P32004); details: PBS, 4.5 g/L glucose, 5 mM MgCl2, 1 mg/mL BSA, 0.1 mg/mL herring sperm DNA, 30 min at 4 °C (or 25/37 °C), pH not stated, protein on the cell surface, label: FAM, single-stranded DNA
sequence,measurement,setting,value
CAGATAGGGGGTAGCTCGGTCGTGTTTTTGGGTTGTTTGGTGGGTCTTCTG [yly20],binding result,[1],binds
same,binding result,[2],no binding
same,binding result,[3],binds
same,binding result,[4],no binding
same,binding result,[5],binds
same,binding result,[6],binds
CAGATAAGGGGTAGCTCGGTCGTGTTTTTGGGTTGTTTGGTGGGTCTTCTG [yly20-G7A],binding result,[7]; 200 nM aptamer,binds more weakly
CAGATAGGGGGTAACTCAGTCGTGTTTTTGGGTTGTTTGGTGGGTCTTCTG [yly20-G1418A],binding result,"[7]; 200 nM, almost lost",binds more weakly
CAGATAGGGGGTAGCTCGGTCGTGTTTTTGGGTTGTTTGATGGGTCTTCTG [yly20-G40A],binding result,"[7]; 200 nM, almost lost",binds more weakly
CAGATAGGGGGTAGCTCGGTCGTGTTTTTGGGTTGTTTGGTGAGTCTTCTG [yly20-G43A],binding result,[7]; 200 nM,binds more weakly
CAGATAGGGGGTAGATCGGTCGTGTTTTTGGGTTGTTTGGTGGGTCTTCTG [yly20-C15A],binding result,"[7]; 200 nM, significantly lost",binds more weakly
CAGATAGGGGGTAGATAGGTCGTGTTTTTGGGTTGTTTGGTGGGTCTTCTG [yly20-C1517A],binding result,"[7]; 200 nM, significantly lost",binds more weakly
CAGATAGGGGGTAGCCCGGTCGTGTTTTCGGGCTGTTTGGTGGGTCTTCTG [yly20-T162933C],binding result,"[7]; 200 nM, almost totally lost",binds more weakly
CAGATAGGGGGTAGCTCAGTCGTGTTTTTGGGTTGTTTGGTGGGTCTTCTG [yly20-G18A],binding result,"[7]; 200 nM, almost lost",binds more weakly
CAGATAGGGAGTAGCTCGGTCGTGTTTTTGGGTTGTTTGGTGGGTCTTCTG [yly20-G10A],binding result,"[7]; 200 nM, almost lost",binds more weakly
CAGATAGGGGGTAACTCGGTCGTGTTTTTGGGTTGTTTGGTGGGTCTTCTG [yly20-G14A],binding result,"[7]; 200 nM, almost lost",binds more weakly
CAGATAGGGGGTAGCTCGGTCGTGTTTTTGAGTTGTTTGGTGGGTCTTCTG [yly20-G31A],binding result,[7]; 200 nM,binds more weakly
CAGATAGGGGATAGCTCGGTCGTGTTTTTGGGTTGTTTGGTGGGTCTTCTG [yly20-G11A],binding result,"[7]; 200 nM, almost lost",binds more weakly
CAGATAGGAGGTAGCTCGGTCGTGTTTTTGGGTTGTTTGGTGGGTCTTCTG [yly20-G9A],binding result,"[7]; 200 nM, almost lost",binds more weakly
